No constants are given. Whether binding was seen depends on the method and setting. For part of these data: A result given as binding can be weak or reduced; the word gives no strength. For part of these data: Binding seen in cells or lysates may run through a third protein. For part of these data: Tags and fused reporters may be left off the sequences shown.

The chains behind the UniProt entries cited, without tags or fusion partners. Where a name states a change or a piece, a line headed by the entry shows the natural chain unless it says otherwise. Residues count along the entry.
UniProt Q3ZCQ8, residues 45-353: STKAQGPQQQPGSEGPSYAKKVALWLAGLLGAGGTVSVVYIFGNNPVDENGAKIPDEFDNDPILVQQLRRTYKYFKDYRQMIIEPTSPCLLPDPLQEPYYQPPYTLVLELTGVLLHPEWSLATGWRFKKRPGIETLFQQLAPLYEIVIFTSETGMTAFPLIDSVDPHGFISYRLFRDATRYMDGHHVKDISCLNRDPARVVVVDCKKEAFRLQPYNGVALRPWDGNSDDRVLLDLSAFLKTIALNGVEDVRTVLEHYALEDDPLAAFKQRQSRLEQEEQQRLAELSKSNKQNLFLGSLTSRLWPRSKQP
UniProt Q9NS69: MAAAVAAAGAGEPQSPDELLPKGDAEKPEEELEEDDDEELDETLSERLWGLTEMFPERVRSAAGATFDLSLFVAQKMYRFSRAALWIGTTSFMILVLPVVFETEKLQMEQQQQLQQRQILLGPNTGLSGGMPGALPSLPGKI
UniProt Q9BXM7: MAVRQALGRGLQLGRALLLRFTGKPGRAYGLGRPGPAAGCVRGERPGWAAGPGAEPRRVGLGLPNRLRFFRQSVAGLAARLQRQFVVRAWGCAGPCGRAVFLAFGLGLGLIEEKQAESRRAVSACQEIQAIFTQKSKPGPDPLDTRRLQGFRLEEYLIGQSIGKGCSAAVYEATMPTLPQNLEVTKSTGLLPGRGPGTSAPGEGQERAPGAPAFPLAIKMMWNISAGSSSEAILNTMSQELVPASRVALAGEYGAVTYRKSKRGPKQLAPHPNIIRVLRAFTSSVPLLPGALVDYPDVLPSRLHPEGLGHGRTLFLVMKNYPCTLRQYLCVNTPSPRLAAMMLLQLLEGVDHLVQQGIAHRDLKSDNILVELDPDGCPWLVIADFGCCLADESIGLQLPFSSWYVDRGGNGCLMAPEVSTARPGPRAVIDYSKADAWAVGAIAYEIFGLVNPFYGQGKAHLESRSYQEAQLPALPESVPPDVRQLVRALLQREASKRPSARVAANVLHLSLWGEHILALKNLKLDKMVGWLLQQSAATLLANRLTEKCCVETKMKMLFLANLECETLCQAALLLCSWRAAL

The record followed here is PMC10927582.

Assay [1] addresses Tim50-FLAG (UniProt Q3ZCQ8). In words: co-IP; Tim50-FLAG immunopurification in the presence of the Tom20-binding deficient PINK1 mutants (SI Appendix, Fig. S9).
A further assay concerns the target T1, Tim23-FLAG (UniProt O14925).
T1 sequence: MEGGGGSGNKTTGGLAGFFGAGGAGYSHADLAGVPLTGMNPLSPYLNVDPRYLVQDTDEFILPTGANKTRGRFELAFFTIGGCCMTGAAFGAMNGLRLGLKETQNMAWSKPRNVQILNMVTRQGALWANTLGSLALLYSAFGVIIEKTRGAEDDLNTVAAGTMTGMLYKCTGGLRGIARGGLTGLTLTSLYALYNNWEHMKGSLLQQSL
In words: co-IP; FLAG immunocapture from isolated mitochondria of HEK293T cells transfected with Tim50-FLAG or Tim23-FLAG; 20 µM CCCP 4 h; elution with FLAG peptide; immunoblot. For orientation: A western blot detects proteins with antibodies after separation by electrophoresis.

In assay [2] the target is Tim50-FLAG (UniProt Q3ZCQ8). Described as above.
Another assay addresses Tom22-FLAG (UniProt Q9NS69). In words: co-IP; FLAG immunocapture from isolated mitochondria of WT U2OS cells transfected with Tom22-FLAG or Tim50-FLAG; 20 µM CCCP or DMSO 4 h; elution with FLAG peptides; immunoblot.
Assay [3] concerns the target Tim50-FLAG (UniProt Q3ZCQ8). The assay is described as above.
The target of assay [4] is pCMV(d1)TNT PINK1(WT)-3HA (human) (UniProt Q9BXM7). In words: native gel or EMSA; BN-PAGE of 1% digitonin-solubilised mitochondria and immunoblot; U2OS PINK1 KO cells transfected with PINK1-HA (WT or mutants), 20 µM CCCP 4 h or ΔOTC expression; comigration at 720 kDa. Background: A gel shift assay detects complexes by their altered migration in electrophoresis.
A further assay deals with PINK1-HA I131E (human) (UniProt Q9BXM7). In words: co-IP; HA immunocapture (anti-HA magnetic beads) from isolated mitochondria of U2OS PINK1 KO cells transfected with PINK1-HA (WT or mutants); 20 µM CCCP 4 h or ΔOTC for 36 h; elution with HA peptide, 0.2% digitonin; immunoblot.
The next assay concerns the target PINK1-HA A536E (human) (UniProt Q9BXM7). Described as above.
In another assay the target is PINK1-HA L540K (human) (UniProt Q9BXM7). Described as above.
Assay [5] concerns the target pCMV(d1)TNT PINK1(WT)-3HA (human) (UniProt Q9BXM7). The description is as above.

For the molecule PINK1-HA A536E (from UniProt Q9BXM7), in the assay with Tim50-FLAG [1], the binding result is recorded as “no binding”.

Consider PINK1-HA I131E (from UniProt Q9BXM7), for which the binding result with Tim50-FLAG [1] is “no binding”.

In the case of PINK1-HA L540K (from UniProt Q9BXM7), the binding entry in the assay with Tim50-FLAG [1] is listed as “no binding”.

As for “PTEN-induced putative kinase 1 (PINK1), endogenous (from UniProt Q9BXM7)”, the binding result in the assay with Tim23-FLAG, in the assay with Tim50-FLAG [2], with Tom22-FLAG and with Tim50-FLAG [3] was “binds” each time.

In the case of “Tim50 subunit of the TIM23 complex, endogenous (from UniProt Q3ZCQ8 45-353)”, the binding result was “binds” in [4], “no binding” in the assay with PINK1-HA I131E (human), “no binding” in the assay with PINK1-HA A536E (human) and “no binding” with PINK1-HA L540K (human).

For “Tom22 subunit of the TOM complex, endogenous (from UniProt Q9NS69 1-142)”, in assay [5], the binding result is reported as “binds”.

B1: Tim23 subunit of the TIM23 complex, endogenous (protein, UniProt O14925 1-209)
chain: T1 sequence
For B1, the binding result in assay [4] is listed as “binds”; in the assay with PINK1-HA I131E (human), “no binding”; with PINK1-HA A536E (human) it was “no binding”; with PINK1-HA L540K (human) it was “no binding”.

B2: Tom40 subunit of the TOM complex, endogenous (protein, UniProt O96008 1-361)
chain: MGNVLAASSPPAGPPPPPAPALVGLPPPPPSPPGFTLPPLGGSLGAGTSTSRSSERTPGAATASASGAAEDGACGCLPNPGTFEECHRKCKELFPIQMEGVKLTVNKGLSNHFQVNHTVALSTIGESNYHFGVTYVGTKQLSPTEAFPVLVGDMDNSGSLNAQVIHQLGPGLRSKMAIQTQQSKFVNWQVDGEYRGSDFTAAVTLGNPDVLVGSGILVAHYLQSITPCLALGGELVYHRRPGEEGTVMSLAGKYTLNNWLATVTLGQAGMHATYYHKASDQLQVGVEFEASTRMQDTSVSFGYQLDLPKANLLFKGSVDSNWIVGATLEKKLPPLPLTLALGAFLNHRKNKFQCGFGLTIG
On to B2, for which the binding result is “no binding” with PINK1-HA I131E (human), “binds” in assay [5], “no binding” in the assay with PINK1-HA A536E (human) and “no binding” with PINK1-HA L540K (human).

B3: Tim22 subunit of the TIM22 translocase, endogenous (protein, UniProt Q9Y584 1-194)
chain: MAAAAPNAGGSAPETAGSAEAPLQYSLLLQYLVGDKRQPRLLEPGSLGGIPSPAKSEEQKMIEKAMESCAFKAALACVGGFVLGGAFGVFTAGIDTNVGFDPKDPYRTPTAKEVLKDMGQRGMSYAKNFAIVGAMFSCTECLIESYRGTSDWKNSVISGCITGGAIGFRAGLKAGAIGCGGFAAFSAAIDYYLR
With B3, the binding result in assay [4] is “no binding”.
